Earlier results, collected in patent publication US10376465B2, “Monovalent metal cation dry powders for inhalation” (priority 2010, dated 2019).
At least one structure is not confirmed: it was looked up by name or label, or the drawing left a doubt.

Details: Merck Index; cited from earlier work

[Cl-].[K+] [Potassium chloride]
Water solubility at 20-30° C., 1 bar: 1 g/2.8 mL^1
